{"source": "patent US20180078576A1", "about": "“SULPHATED XYLANS FOR TREATMENT OR PROPHYLAXIS OF RESPIRATORY DISEASES” (Paradigm Biopharmaceuticals Limited, priority 2007, published 2018)", "test_system": "guinea pigs sensitized with ovalbumin (OVA) and challenged intranasally with OVA", "test": "Allergic rhinitis model in the guinea pig (OVA)", "assay_type": "in vivo", "details": "8 hours after intranasal OVA challenge", "procedure": "An allergic rhinitis model in the guinea pig was used. The guinea pigs are sensitized to ovalbumin (OVA) twice (on days 0 and 7) by an intraperitoneal injection of 0.5 ml saline containing 100 mg Al(OH)3 and 2 μg OVA. Three weeks after the last sensitization, animals are anaesthetized and the exposure of the nasal cavity to allergen is performed by dropping OVA solution at 20 mg/ml into bilateral nasal cavities. For the negative control the animals receive sensitization and challenge with saline. The animals are pretreated with either vehicle or drug (pentosan polysulfate or Budesonide) 30 min prior to intranasal instillation of OVA. Vehicle or drugs are administered, 25 μl-50 μl/nostril. A comparison of the pentosan polysulfate with Budesomde, as the reference compound, is included. Animals are terminated and all parameters measured eight hours after the provocation.\nThe nasal mucosal barrier permeability is assessed by measuring the leakage of protein-rich and non-sieved plasma into the nasal cavities. The amount of extravasated plasma is indicated as nasal lavage levels of total protein or albumin. […] The cells in this fluid are centrifuged and resuspended in phosphate buffered saline and counted using a semiautomated haematology analyzer. The cell composition of the nasal lavage is determined after a cytospin and staining with May Grynwald Giemsa.", "note": "For at least one compound, name, drawing or mass did not settle the structure.", "data": [{"smiles": "CCCC1O[C@@H]2C[C@H]3[C@@H]4CCC5=CC(=O)C=C[C@]5(C)[C@H]4[C@@H](O)C[C@]3(C)[C@]2(C(=O)CO)O1", "note": "(some centres unmarked) [Budesonide]", "values": [{"measurement": "Leukocyte infiltration into nasal lavage fluid (total white cell numbers)", "setting": "FIG. 12", "value": "marked decrease"}, {"measurement": "Protein content of nasal lavage fluid (plasma exudation)", "setting": "drug intranasal 30 min before, FIG. 11", "value": "marked decrease"}]}]}
